According to publication doi:10.1101/2025.10.22.683840:
These are yes or no findings as the source states them, for the method shown. In cells and extracts the contact can be indirect. A yes stands for co-enrichment or nearness to the bait. Other partners may have been found.

Molecular target: p53-BirA*-FLAG (human) (UniProt P04637)
Assay: proximity labelling

| binding | Binder |
| --- | --- |
| binds | TOP1 Binding Arginine/Serine Rich Protein (TOPORS) (protein, UniProt Q9NS56 1-1045) MGSQPPLGSPLSREEGEAPPPAPASEGRRRSRRVRLRGSCRHRPSFLGCRELAASAPARPAPASSEIMASAAKEFKMDNFSPKAGTSKLQQTVPADASPDSKCPICLDRFDNVSYLDRCLHKFCFRCVQEWSKNKAECPLCKQPFDSIFHSVRAEDDFKEYVLRPSYNGSFVTPDRRFRYRTTLTRERNASVYSPSGPVNRRTTTPPDSGVLFEGLGISTRPRDVEIPQFMRQIAVRRPTTADERSLRKIQEQDIINFRRTLYRAGARVRNIEDGGRYRDISAEFFRRNPACLHRLVPWLKRELTVLFGAHGSLVNIVQHIIMSNVTRYDLESQAFVSDLRPFLLNRTEHFIHEFISFARSPFNMAAFDQHANYDCPAPSYEEGSHSDSSVITISPDEAETQELDINVATVSQAPWDDETPGPSYSSSEQVHVTMSSLLNTSDSSDEELVTGGATSQIQGVQTNDDLNNDSDDSSDNCVIVGFVKPLAERTPELVELSSDSEDLGSYEKMETVKTQEQEQSYSSGDSDVSRCSSPHSVLGKDEQINKGHCDSSTRIKSKKEEKRSTSLSSPRNLNSSVRGDRVYSPYNHRHRKRGRSRSSDSRSQSRSGHDQKNHRKHHGKKRMKSKRSRSRESSRPRGRRDKKRSRTRDSSWSRRSQTLSLSSESTSRSRSRSSDHGKRRSRSRNRDRYYLRNNYGSRYKWEYTYYSRNKDRDGYESSYRRRTLSRAHYSRQSSSPEFRVQSFSERTNARKKNNHSERKYYYYERHRSRSLSSNRSRTASTGTDRVRNEKPGGKRKYKTRHLEGTNEVAQPSREFASKAKDSHYQKSSSKLDGNYKNESDTFSDSRSSDRETKHKRRKRKTRSLSVEIVYEGKATDTTKHHKKKKKKHKKKHKKHHGDNASRSPVVITIDSDSDKDSEVKEDTECDNSGPQDPLQNEFLAPSLEPFETKDVVTIEAEFGVLDKECDIATLSNNLNNANKTVDNIPPLAASVEQTLDVREESTFVSDLENQPSNIVSLQTEPSRQLPSPRTSLMSVCLGRDCDMS |
| binds | ERCC4 (protein, UniProt Q92889 1-916) MESGQPARRIAMAPLLEYERQLVLELLDTDGLVVCARGLGADRLLYHFLQLHCHPACLVLVLNTQPAEEEYFINQLKIEGVEHLPRRVTNEITSNSRYEVYTQGGVIFATSRILVVDFLTDRIPSDLITGILVYRAHRIIESCQEAFILRLFRQKNKRGFIKAFTDNAVAFDTGFCHVERVMRNLFVRKLYLWPRFHVAVNSFLEQHKPEVVEIHVSMTPTMLAIQTAILDILNACLKELKCHNPSLEVEDLSLENAIGKPFDKTIRHYLDPLWHQLGAKTKSLVQDLKILRTLLQYLSQYDCVTFLNLLESLRATEKAFGQNSGWLFLDSSTSMFINARARVYHLPDAKMSKKEKISEKMEIKEGEETKKELVLESNPKWEALTEVLKEIEAENKESEALGGPGQVLICASDDRTCSQLRDYITLGAEAFLLRLYRKTFEKDSKAEEVWMKFRKEDSSKRIRKSHKRPKDPQNKERASTKERTLKKKKRKLTLTQMVGKPEELEEEGDVEEGYRREISSSPESCPEEIKHEEFDVNLSSDAAFGILKEPLTIIHPLLGCSDPYALTRVLHEVEPRYVVLYDAELTFVRQLEIYRASRPGKPLRVYFLIYGGSTEEQRYLTALRKEKEAFEKLIREKASMVVPEEREGRDETNLDLVRGTASADVSTDTRKAGGQEQNGTQQSIVVDMREFRSELPSLIHRRGIDIEPVTLEVGDYILTPEMCVERKSISDLIGSLNNGRLYSQCISMSRYYKRPVLLIEFDPSKPFSLTSRGALFQEISSNDISSKLTLLTLHFPRLRILWCPSPHATAELFEELKQSKPQPDAATALAITADSETLPESEKYNPGPQDFLLKMPGVNAKNCRSLMHHVKNIAELAALSQDELTSILGNAANAKQLYDFIHTSFAEVVSKGKGKK |
| binds | POLH (protein, UniProt Q9Y253 1-713) MATGQDRVVALVDMDCFFVQVEQRQNPHLRNKPCAVVQYKSWKGGGIIAVSYEARAFGVTRSMWADDAKKLCPDLLLAQVRESRGKANLTKYREASVEVMEIMSRFAVIERASIDEAYVDLTSAVQERLQKLQGQPISADLLPSTYIEGLPQGPTTAEETVQKEGMRKQGLFQWLDSLQIDNLTSPDLQLTVGAVIVEEMRAAIERETGFQCSAGISHNKVLAKLACGLNKPNRQTLVSHGSVPQLFSQMPIRKIRSLGGKLGASVIEILGIEYMGELTQFTESQLQSHFGEKNGSWLYAMCRGIEHDPVKPRQLPKTIGCSKNFPGKTALATREQVQWWLLQLAQELEERLTKDRNDNDRVATQLVVSIRVQGDKRLSSLRRCCALTRYDAHKMSHDAFTVIKNCNTSGIQTEWSPPLTMLFLCATKFSASAPSSSTDITSFLSSDPSSLPKVPVTSSEAKTQGSGPAVTATKKATTSLESFFQKAAERQKVKEASLSSLTAPTQAPMSNSPSKPSLPFQTSQSTGTEPFFKQKSLLLKQKQLNNSSVSSPQQNPWSNCKALPNSLPTEYPGCVPVCEGVSKLEESSKATPAEMDLAHNSQSMHASSASKSVLEVTQKATPNPSLLAAEDQVPCEKCGSLVPVWDMPEHMDYHFALELQKSFLQPHSSNPQVVSAVSHQGKRNPKSPLACTNKRPRPEGMQTLESFFKPLTH |
| binds | ERCC1 (protein, UniProt P07992 1-297) MDPGKDKEGVPQPSGPPARKKFVIPLDEDEVPPGVAKPLFRSTQSLPTVDTSAQAAPQTYAEYAISQPLEGAGATCPTGSEPLAGETPNQALKPGAKSNSIIVSPRQRGNPVLKFVRNVPWEFGDVIPDYVLGQSTCALFLSLRYHNLHPDYIHGRLQSLGKNFALRVLLVQVDVKDPQQALKELAKMCILADCTLILAWSPEEAGRYLETYKAYEQKPADLLMEKLEQDFVSRVTECLTTVKSVNKTDSQTLLTTFGSLEQLIAASREDLALCPGLGPQKARRLFDVLHEPFLKVP |
